{"source": "patent US20060257938A1", "about": "“Method of screening for drugs that block ligand binding to a lipid binding protein” (priority 2005, published 2006)", "molecules": {"B1": {"name": "106W, 72A (protein, listed as Rattus norvegicus)", "chain": "AFDGTWKVDRNENYEKFMEKMGINVVKRKLGAHDNLKLTITQEGNKFTVKESSNFRNIDVVFELGVDFAYSAADGTELTGTWTMEGNKLVGKFKRVDNGKELIAVWEISGNELIQTYTYEGVEAKRIFKKE", "modifications": "PEPTIDE (1)...(131) wild-type rat intestinal fatty acid binding protein"}, "B2": {"name": "117A, 72A (protein, listed as Rattus norvegicus)", "chain": "B1 chain with W106R, Y117A", "modifications": "PEPTIDE (1)...(131) wild-type rat intestinal fatty acid binding protein"}, "B3": {"name": "106N1, 72A (protein, listed as Rattus norvegicus)", "chain": "B1 chain with W106N", "modifications": "PEPTIDE (1)...(131) wild-type rat intestinal fatty acid binding protein"}, "B4": {"name": "106Q, 72A (protein, listed as Rattus norvegicus)", "chain": "B1 chain with W106Q", "modifications": "PEPTIDE (1)...(131) wild-type rat intestinal fatty acid binding protein"}, "B5": {"name": "106S2, 72A (protein, listed as Rattus norvegicus)", "chain": "B1 chain with W106S", "modifications": "PEPTIDE (1)...(131) wild-type rat intestinal fatty acid binding protein"}, "B6": {"name": "106T2, 72A (protein, listed as Rattus norvegicus)", "chain": "B1 chain with W106T", "modifications": "PEPTIDE (1)...(131) wild-type rat intestinal fatty acid binding protein"}, "B7": {"name": "106V1, 72A (protein, listed as Rattus norvegicus)", "chain": "B1 chain with W106V", "modifications": "PEPTIDE (1)...(131) wild-type rat intestinal fatty acid binding protein"}, "B8": {"name": "106Y1, 72A (protein, listed as Rattus norvegicus)", "chain": "B1 chain with W106Y", "modifications": "PEPTIDE (1)...(131) wild-type rat intestinal fatty acid binding protein"}, "B9": {"name": "113M, 72A (protein, listed as Rattus norvegicus)", "chain": "B1 chain with W106R, L113M", "modifications": "PEPTIDE (1)...(131) wild-type rat intestinal fatty acid binding protein"}, "B10": {"name": "115A1, 72A (protein, listed as Rattus norvegicus)", "chain": "B1 chain with W106R, Q115A", "modifications": "PEPTIDE (1)...(131) wild-type rat intestinal fatty acid binding protein"}, "B11": {"name": "115D1, 72A (protein, listed as Rattus norvegicus)", "chain": "B1 chain with W106R, Q115D", "modifications": "PEPTIDE (1)...(131) wild-type rat intestinal fatty acid binding protein"}, "B12": {"name": "115E1, 72A (protein, listed as Rattus norvegicus)", "chain": "B1 chain with W106R, Q115E", "modifications": "PEPTIDE (1)...(131) wild-type rat intestinal fatty acid binding protein"}, "B13": {"name": "115F1, 72A (protein, listed as Rattus norvegicus)", "chain": "B1 chain with W106R, Q115F", "modifications": "PEPTIDE (1)...(131) wild-type rat intestinal fatty acid binding protein"}, "B14": {"name": "102A, 72A (protein, listed as Rattus norvegicus)", "chain": "B1 chain with L102A, W106R", "modifications": "PEPTIDE (1)...(131) wild-type rat intestinal fatty acid binding protein"}, "B15": {"name": "115H1, 72A (protein, listed as Rattus norvegicus)", "chain": "B1 chain with W106R, Q115H", "modifications": "PEPTIDE (1)...(131) wild-type rat intestinal fatty acid binding protein"}, "B16": {"name": "115I3, 72A (protein, listed as Rattus norvegicus)", "chain": "B1 chain with W106R, Q115I", "modifications": "PEPTIDE (1)...(131) wild-type rat intestinal fatty acid binding protein"}, "B17": {"name": "115K3, 72A (protein, listed as Rattus norvegicus)", "chain": "B1 chain with W106R, Q115K", "modifications": "PEPTIDE (1)...(131) wild-type rat intestinal fatty acid binding protein"}, "B18": {"name": "115L3, 72A (protein, listed as Rattus norvegicus)", "chain": "B1 chain with W106R, Q115L", "modifications": "PEPTIDE (1)...(131) wild-type rat intestinal fatty acid binding protein"}, "B19": {"name": "115N2, 72A (protein, listed as Rattus norvegicus)", "chain": "B1 chain with W106R, Q115N", "modifications": "PEPTIDE (1)...(131) wild-type rat intestinal fatty acid binding protein"}, "B20": {"name": "115P1, 72A (protein, listed as Rattus norvegicus)", "chain": "B1 chain with W106R, Q115P", "modifications": "PEPTIDE (1)...(131) wild-type rat intestinal fatty acid binding protein"}, "B21": {"name": "115R1, 72A (protein, listed as Rattus norvegicus)", "chain": "B1 chain with W106R, Q115R", "modifications": "PEPTIDE (1)...(131) wild-type rat intestinal fatty acid binding protein"}, "B22": {"name": "115S1, 72A (protein, listed as Rattus norvegicus)", "chain": "B1 chain with W106R, Q115S", "modifications": "PEPTIDE (1)...(131) wild-type rat intestinal fatty acid binding protein"}, "B23": {"name": "115T3, 72A (protein, listed as Rattus norvegicus)", "chain": "B1 chain with W106R, Q115T", "modifications": "PEPTIDE (1)...(131) wild-type rat intestinal fatty acid binding protein"}, "B24": {"name": "115V2, 72A (protein, listed as Rattus norvegicus)", "chain": "B1 chain with W106R, Q115V", "modifications": "PEPTIDE (1)...(131) wild-type rat intestinal fatty acid binding protein"}, "B25": {"name": "115Y1, 72A (protein, listed as Rattus norvegicus)", "chain": "B1 chain with W106R, Q115Y", "modifications": "PEPTIDE (1)...(131) wild-type rat intestinal fatty acid binding protein"}}, "note": "Substitutions are numbered along the chain they refer to.", "data": [{"experiment": "Baseline fluorescence ratio Ro of probe in absence of analyte", "details": "baseline fluorescence ratio of probe", "values": [{"molecule": "B1", "Ro": 0.241}, {"molecule": "B2", "Ro": 0.270}]}, {"experiment": "Baseline fluorescence ratio Ro of probe in absence of analyte", "details": "baseline fluorescence ratio of probe, no fatty acid", "values": [{"molecule": "B3", "AvgOfRo": 0.24}, {"molecule": "B4", "AvgOfRo": 0.24}, {"molecule": "B5", "AvgOfRo": 0.26}, {"molecule": "B6", "AvgOfRo": 0.26}, {"molecule": "B7", "AvgOfRo": 0.30}, {"molecule": "B1", "AvgOfRo": 0.24}, {"molecule": "B8", "AvgOfRo": 0.17}, {"molecule": "B9", "AvgOfRo": 0.18}, {"molecule": "B10", "AvgOfRo": 0.16}, {"molecule": "B11", "AvgOfRo": 0.16}, {"molecule": "B12", "AvgOfRo": 0.22}, {"molecule": "B13", "AvgOfRo": 0.23}, {"molecule": "B14", "AvgOfRo": 0.24}, {"molecule": "B15", "AvgOfRo": 0.15}, {"molecule": "B16", "AvgOfRo": 0.24}, {"molecule": "B17", "AvgOfRo": 0.16}, {"molecule": "B18", "AvgOfRo": 0.17}, {"molecule": "B19", "AvgOfRo": 0.16}, {"molecule": "B20", "AvgOfRo": 0.27}, {"molecule": "B21", "AvgOfRo": 0.40}, {"molecule": "B22", "AvgOfRo": 0.39}, {"molecule": "B23", "AvgOfRo": 0.21}, {"molecule": "B24", "AvgOfRo": 0.28}, {"molecule": "B25", "AvgOfRo": 0.40}, {"molecule": "B2", "AvgOfRo": 0.28, "Ro": 0.270}]}]}
